According to PubChem BioAssay AID1035470 (Broad Institute, 2014):
The whole screen tested about 1,800 compounds, of which fewer than 10 were called active. Inconclusive results (about 16%) are left out.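 How the source made its calls: active means compound lowering the normal-ribosome reporter at least twice as much as the humanized-ribosome reporter, growth loss under a set limit; inconclusive means no clear call, values can overlap the other calls; inactive means the rest.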 The entries are a selection whose mix differs from that of the whole data set. Potency and affinity values are given separately.

Experiment: growth inhibition of wild-type GFP E. coli versus G2058-humanized strain, dose response, G2058 mutant RFP vs wild-type GFP, cherry-pick, two tests (AID 1035470)
Settings: E. coli WT-GFP vs G2058-humanized RFP, fluorescence, 24 h; at 50 µM (top of the series)

Activity change, negative = inhibition, inactive:
COc1cccc(NC(=O)C2CCC(CNS(=O)(=O)c3cccc4cccnc34)CC2)c1 (configuration not stated) -15.6
Cc1ccc(C(=O)NCC(=O)OCC(=O)Nc2cccc(S(=O)(=O)N3CCCC3)c2)cc1C -3.75
Fc1ccccc1C1CCN(Cc2nc(CC3CC3)no2)C1 (configuration not stated) -7.8
COC(=O)c1nc(-c2ccc(C)cc2)[nH]c1C(C)(C)C -4.69
COc1ccccc1NC(=O)COC(=O)Cc1c[nH]c2ccccc12 -23.2
CN(C)S(=O)(=O)c1cccc(C(=O)OCC(=O)c2ccc3c(c2)NC(=O)CO3)c1 -8.73
NS(=O)(=O)c1ccc(CCNC(=O)CCCCCNc2nc(=S)[nH]c3ccccc23)cc1 -8.65
Cc1noc(C)c1NC(=O)Nc1ccc2c(c1)C(=O)N([C@H](C)CO)C[C@H](C)[C@H](CN(C)C(=O)Nc1ccc3c(c1)OCO3)OCCCC[C@H](C)O2 15
CCc1cc(CN2CCOCC2)c(NC(=O)c2ccccc2)s1 -6.48
CCNc1nc(N)c(C(=O)C23CC4CC(CC(C4)C2)C3)s1 -9.62
CCN=C1NN=C(c2ccc(C)cc2)CS1 -3.58
Cc1cc(C(=O)COC(=O)CNC(=O)c2ccccc2)c(C)n1CC1CCCO1 (configuration not stated) -18.4
COCc1nnc(NC(=O)c2ccc(S(=O)(=O)N3CCCC3)cc2)o1 -10.3
O=C(COC(=O)C1CC2C=CC1C2)Nc1ccc([N+](=O)[O-])cc1 (configuration not stated) -15.1
Brc1ccc(-c2nc3c4ccccc4ccn3c2Cc2ccccc2)cc1 2.3
Cc1ccc(Cc2c(-c3ccc(C#N)cc3)nc3ccc(Br)cn23)cc1 -5.11
COc1ccccc1CC(=O)NCCc1c[nH]c2ccccc12 3.23
C=CCn1c(C)cc(C(=O)CSc2nnc(C3CC3)n2C2CC2)c1C -7.34
CCN(CC)S(=O)(=O)c1ccc(O)c(C(=O)OCC(=O)NC23CC4CC(CC(C4)C2)C3)c1 -2.43
O=C(CCNc1cccc(Cl)c1)c1cccs1 -1.48
O=C(COC(=O)c1ccc(O)cc1)Nc1ccccc1 -0.941
COc1cc(CCN(C(=O)c2cc3ccccc3[nH]2)C(c2ccccn2)c2nc3ccccc3[nH]2)cc(OC)c1 (configuration not stated) -12.2
O=C(Nc1cccc(F)c1)N1C[C@@H]2[C@H](c3ccccc31)[C@H](CO)N2C(=O)Cc1ccccn1 4.99
CCCCC(=O)N(Cc1ccc2c(c1)OCO2)Cc1nc2ccccc2c(=O)[nH]1 1.04
Cc1cccc(N2Cc3ccc(Br)cc3C2)c1 -4.16
Cc1cc(C)cc(NS(=O)(=O)c2c(C(=O)N3CCCCCC3)c(C)n(C)c2C)c1 -6.84
CC(OC(=O)COc1ccccc1)C(=O)NC1CCCC1 (configuration not stated) -8.33
CC1(C(=O)NS(=O)(=O)c2cccc(C#N)c2)CCN1C(=O)C1(c2ccc(Cl)cc2)CCC1 (configuration not stated) -9.96
COc1ccc(-c2csc3ncn(-c4ccc(C)cc4)c(=O)c23)cc1OC -22.9
Fc1ccc(-c2nc3c(Cl)cc(C(F)(F)F)cn3c2Cc2ccsc2)cc1 0.916
C=C1c2cc3c(cc2NC(=S)N1Cc1ccccc1)OCO3 -11.4
Cc1cccc(NC(=O)CN(C)S(=O)(=O)c2cccs2)c1 -12.2
Nc1ccc(C(=O)Nc2ccc3nc(-c4ccncc4)[nH]c3c2)cc1 -14.9
O=C(CSc1nc2ccccc2n1S(=O)(=O)c1cccc([N+](=O)[O-])c1)NCCc1ccccc1 -5.02
C[C@@H]1CCCCO[C@@H](CN(C)C)[C@H](C)CN([C@@H](C)CO)C(=O)c2cc(NC(=O)Nc3cccc4ccccc34)ccc2O1 17.4
CC1CCc2c(sc3ncn4c(SCC(=O)NCc5ccco5)nnc4c23)C1 (configuration not stated) -3.41
CC(C)(Nc1ccccc1)C(=O)c1ccccc1 -19.6
Cc1cccc(NC(=O)c2c(C)nn(-c3ccccc3)c2Cl)c1 -18
CC[n+]1c(C)cc2c(sc3ccccc32)c1C -11.4
O=C1Nc2ccc(F)cc2C12Nc1ccccc1-c1nnc(SCc3ccccc3)nc1O2 (configuration not stated) -11.2
C=CCNC(=O)c1ccccc1CCc1ccccc1 -12.7
CCOc1ncccc1C(=O)OCC(=O)NCCCc1ccccc1 -20
Cc1cccc(-n2cnc3cc([N+](=O)[O-])ccc32)c1 -3
O=C(Nc1ccc2c(c1)OCCO2)C1C(c2ccccc2)=Nc2ccccc2N1C(=O)c1cccnc1 (configuration not stated) 0.765
O=C1CCCc2ccccc2N1Cc1ccccc1 -20.2
Cc1ccccc1-n1c([C@@H]2C[C@H]2c2ccccc2)n[nH]c1=S -15.5
COc1ccc(C)c2sc(N(CCN(C)C)C(=O)c3ccc(S(=O)(=O)N(C)c4ccccc4)cc3)nc12 4.7
O=C(Nc1ccc(Cl)c(Cl)c1)c1ccc(Cl)c(Cl)c1 -12.7
Cc1cccc(NC(=O)c2nc(S(=O)(=O)Cc3ccccc3)ncc2Cl)c1 -5.02
O=C(CSc1nnc(COc2cccc3cccnc23)o1)c1ccc(F)cc1 -11.1
O=C(CN(c1ccc(F)cc1)S(=O)(=O)c1ccccc1)Nc1ccccc1C(=O)O -12.9
O=C(Cc1c(F)cccc1Cl)N(Cc1ccccc1)c1ccccn1 -16.8
C[C@@H]1CCCCO[C@H](CN(C)C)[C@@H](C)CN([C@H](C)CO)C(=O)c2cc(NC(=O)Nc3cccc4ccccc34)ccc2O1 29.6
Cc1onc(-c2ccccc2Cl)c1C(=O)Nc1ccc(Cl)cn1 -5.73
Nc1ccc(C(=O)OCCCc2nc3cc4ccccc4cc3[nH]2)cc1 -7.66
Cc1noc(C)c1NC(=O)N(C)C[C@H]1OCCCC[C@@H](C)Oc2ccc(NC(=O)Nc3cccc4ccccc34)cc2C(=O)N([C@@H](C)CO)C[C@H]1C 2.78
COC(=O)c1ccc(CCc2cc(O)c(Br)cc2O)cc1 -22.1
CSc1ccccc1NC(=O)CN(c1cccc(C)c1)S(C)(=O)=O -7.39
COc1ccc(C#Cc2ccc([C@@H]3[C@@H](CO)N4CCCCN(C(=O)Nc5ccc(F)cc5)C[C@H]34)cc2)cc1 -0.946
O=C(O)CNC(=O)C(c1ccccc1)c1ccccc1 -3.19
Cc1cccc(-c2nsc(SCC(=O)NCC3CCCO3)n2)c1 (configuration not stated) -11.8
CN(C)S(=O)(=O)c1cccc(NC(=O)c2ccc3c(c2)S(=O)(=O)N=C2CCCCCN23)c1 -12.4
O=C(c1ccc(N2CCCCC2)c([N+](=O)[O-])c1)N1CCN(c2ccccn2)CC1 -14.6
COc1ccc2c(c1)-c1nc(N)sc1CC2 -4.08
O=C(CCNC(=O)c1ccco1)Nc1cccc(Br)c1 -16.9
Cc1cccc(Oc2ccc(NC(=O)c3ccccc3C(=O)O)cc2)c1 -7.08
Cc1ccc(CSCC(=O)Nc2ccccc2F)cc1 -15.3
O=C(c1cc(S(=O)(=O)N2CCOCC2)ccc1Cl)N1CCc2ccccc2C1 -17.2
Cc1n[nH]c(C)c1S(=O)(=O)N1CCCC(C(=O)Nc2ccc(Br)cc2)C1 (configuration not stated) -2.32
Cc1ccc2c(N)c(C(=O)c3ccccc3)sc2n1 -23
COc1ccc(C2=NN(C(=O)c3cccnc3)C(c3ccccc3)C2)cc1 (configuration not stated) -5.86
[O-][n+]1ccccc1/C=C/c1ccccc1 -16.5
COCC(C)NC(=O)c1nn(Cc2ccccc2)c(=O)c2ccccc12 (configuration not stated) -8.39
Cc1cc(NC(=O)c2sc(Nc3ccc(F)c(Cl)c3)nc2N)no1 3.6
Cc1cc(C)nc(SCCC(=O)Nc2ccccc2Cl)n1 0.479
CC(CCc1ccccc1)NC(=O)CCC1CCCC1 (configuration not stated) -1.78
CCn1c(NC(=O)c2nn(C)cc2Br)nc2ccccc21 -7.76
CN1CCSc2ccc(C(=O)Nc3cccc(F)c3)cc21 -9.02
COc1ccc(-c2cc(C(=O)O)nc3ccc4ccccc4c23)cc1OC -13
Cc1onc(-c2ccccc2Cl)c1C(=O)N1CCN(Cc2ccc3c(c2)OCO3)CC1 -9.95
CC(C)c1ccc(-c2nc3ccccc3s2)cc1 2.01
CC(NC(=O)c1ccncc1)c1ccc(Cl)cc1Cl (configuration not stated) -2.79
COC(=O)c1cc(S(=O)(=O)NCc2ccc3c(c2)OCO3)cn1C -18.4
Cc1ccc(-c2nc(CN3CCCCC3c3cccc(F)c3)c(C)o2)o1 (configuration not stated) -14
c1ccc2c(c1)Nc1cc3ccccc3cc1S2 0.57
Cc1nn(Cc2cccc(F)c2)c(C)c1NC(=O)c1c(Cl)cnn1C -0.197
Cc1ccc(NCC(=O)c2ccc(C)cc2)cc1 -6.49
COc1ccc(OC)c(NC(=O)COc2ccc(S(=O)(=O)NC(C)C)cc2)c1 -15.7
Cc1cc(C)c(OCCN(C)Cc2ccccc2)c(Br)c1 -12.5
COc1cccc(NC(=O)C(C)SCc2ccccc2)c1 (configuration not stated) -14.7
Cc1ccc(S(=O)(=O)NCc2c(-c3ccccc3)noc2C)cc1 -15.8
Brc1ccc(Nc2ncnc3[nH]ncc23)cc1 -3.7

Among those listed so far, these contain a cyano group.
Activity change, negative = inhibition, inactive:
Cc1ccc(Cc2c(-c3ccc(C#N)cc3)nc3ccc(Br)cn23)cc1 -5.11
CC1(C(=O)NS(=O)(=O)c2cccc(C#N)c2)CCN1C(=O)C1(c2ccc(Cl)cc2)CCC1 (configuration not stated) -9.96

Arranged by count of non-hydrogen atoms (ascending): part of the list above
Activity change, negative = inhibition, inactive:
COC(=O)c1nc(-c2ccc(C)cc2)[nH]c1C(C)(C)C -4.69
COC(=O)c1ccc(CCc2cc(O)c(Br)cc2O)cc1 -22.1
Cc1cc(C)cc(NS(=O)(=O)c2c(C(=O)N3CCCCCC3)c(C)n(C)c2C)c1 -6.84
